Results: article PMC8734419
Results are given in words; binding and its absence hold for the method and conditions named. Binding seen in cells or lysates may run through a third protein. Some results given as binding are weak or reduced against the parent protein; the word gives no strength.

Protein sequences, listed by entry. Tags and fused reporters are not part of them. Residues count along the entry.
UniProt P02751, residues 32-2477: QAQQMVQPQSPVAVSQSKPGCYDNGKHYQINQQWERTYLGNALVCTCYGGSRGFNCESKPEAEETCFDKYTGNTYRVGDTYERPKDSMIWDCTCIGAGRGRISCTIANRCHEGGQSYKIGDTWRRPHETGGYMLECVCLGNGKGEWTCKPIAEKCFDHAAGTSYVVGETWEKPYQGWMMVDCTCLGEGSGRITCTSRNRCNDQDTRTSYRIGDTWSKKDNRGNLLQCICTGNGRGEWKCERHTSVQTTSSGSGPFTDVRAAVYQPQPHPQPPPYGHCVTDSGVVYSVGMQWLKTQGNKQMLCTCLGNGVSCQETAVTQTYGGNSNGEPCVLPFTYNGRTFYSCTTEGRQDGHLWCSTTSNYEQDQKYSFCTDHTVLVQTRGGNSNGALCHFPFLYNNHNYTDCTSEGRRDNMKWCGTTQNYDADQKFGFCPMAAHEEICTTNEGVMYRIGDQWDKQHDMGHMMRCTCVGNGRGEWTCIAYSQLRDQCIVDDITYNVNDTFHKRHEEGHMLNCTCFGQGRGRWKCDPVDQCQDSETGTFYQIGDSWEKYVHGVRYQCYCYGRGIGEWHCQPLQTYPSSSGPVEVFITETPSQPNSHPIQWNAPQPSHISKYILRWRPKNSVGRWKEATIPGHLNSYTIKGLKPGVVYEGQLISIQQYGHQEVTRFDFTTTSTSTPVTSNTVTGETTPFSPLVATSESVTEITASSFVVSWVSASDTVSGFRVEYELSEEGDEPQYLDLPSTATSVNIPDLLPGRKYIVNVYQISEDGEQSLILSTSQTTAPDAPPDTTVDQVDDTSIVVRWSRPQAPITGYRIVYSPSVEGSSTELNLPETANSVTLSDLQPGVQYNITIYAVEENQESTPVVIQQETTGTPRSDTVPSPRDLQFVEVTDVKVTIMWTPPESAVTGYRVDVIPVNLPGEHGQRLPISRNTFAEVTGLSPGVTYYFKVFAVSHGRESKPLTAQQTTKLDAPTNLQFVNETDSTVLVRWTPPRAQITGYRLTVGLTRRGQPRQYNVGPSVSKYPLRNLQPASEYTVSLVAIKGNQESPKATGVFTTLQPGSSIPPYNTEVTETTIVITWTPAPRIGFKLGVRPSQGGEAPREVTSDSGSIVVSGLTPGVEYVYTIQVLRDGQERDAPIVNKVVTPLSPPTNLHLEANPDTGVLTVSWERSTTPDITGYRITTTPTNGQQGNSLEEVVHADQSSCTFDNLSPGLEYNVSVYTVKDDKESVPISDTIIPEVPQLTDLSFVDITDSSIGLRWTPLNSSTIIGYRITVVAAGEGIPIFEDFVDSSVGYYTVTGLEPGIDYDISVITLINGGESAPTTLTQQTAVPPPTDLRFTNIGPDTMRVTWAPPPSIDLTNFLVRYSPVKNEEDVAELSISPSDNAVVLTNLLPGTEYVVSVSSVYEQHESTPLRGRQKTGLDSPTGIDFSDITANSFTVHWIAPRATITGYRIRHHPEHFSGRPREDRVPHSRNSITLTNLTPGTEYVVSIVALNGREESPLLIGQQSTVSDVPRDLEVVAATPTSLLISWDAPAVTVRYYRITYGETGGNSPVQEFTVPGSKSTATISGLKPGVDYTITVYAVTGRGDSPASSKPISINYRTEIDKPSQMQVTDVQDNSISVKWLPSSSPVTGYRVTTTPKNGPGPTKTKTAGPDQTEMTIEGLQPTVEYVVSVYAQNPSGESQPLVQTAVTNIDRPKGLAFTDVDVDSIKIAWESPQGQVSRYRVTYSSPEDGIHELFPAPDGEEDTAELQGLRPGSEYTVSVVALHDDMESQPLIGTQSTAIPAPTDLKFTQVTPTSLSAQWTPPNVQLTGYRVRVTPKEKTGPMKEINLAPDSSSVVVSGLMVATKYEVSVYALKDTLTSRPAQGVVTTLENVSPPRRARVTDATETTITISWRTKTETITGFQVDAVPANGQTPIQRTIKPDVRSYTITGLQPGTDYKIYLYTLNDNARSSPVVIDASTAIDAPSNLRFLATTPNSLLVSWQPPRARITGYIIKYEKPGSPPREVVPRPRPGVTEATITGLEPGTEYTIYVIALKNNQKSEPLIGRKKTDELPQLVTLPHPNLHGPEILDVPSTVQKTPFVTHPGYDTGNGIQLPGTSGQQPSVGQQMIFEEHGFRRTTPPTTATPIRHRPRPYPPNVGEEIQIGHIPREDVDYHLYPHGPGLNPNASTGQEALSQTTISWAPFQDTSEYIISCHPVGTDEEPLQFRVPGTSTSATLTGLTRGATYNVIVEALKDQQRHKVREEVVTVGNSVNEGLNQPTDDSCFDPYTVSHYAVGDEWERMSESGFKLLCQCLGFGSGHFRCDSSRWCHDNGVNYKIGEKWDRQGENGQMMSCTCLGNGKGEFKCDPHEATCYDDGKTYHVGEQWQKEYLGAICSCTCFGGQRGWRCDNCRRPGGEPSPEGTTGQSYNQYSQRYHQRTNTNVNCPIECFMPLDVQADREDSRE

Target: T1, B7-H3 (human (endogenous in MGC-803 and MKN-45)) (UniProt Q5ZPR3)
T1 sequence: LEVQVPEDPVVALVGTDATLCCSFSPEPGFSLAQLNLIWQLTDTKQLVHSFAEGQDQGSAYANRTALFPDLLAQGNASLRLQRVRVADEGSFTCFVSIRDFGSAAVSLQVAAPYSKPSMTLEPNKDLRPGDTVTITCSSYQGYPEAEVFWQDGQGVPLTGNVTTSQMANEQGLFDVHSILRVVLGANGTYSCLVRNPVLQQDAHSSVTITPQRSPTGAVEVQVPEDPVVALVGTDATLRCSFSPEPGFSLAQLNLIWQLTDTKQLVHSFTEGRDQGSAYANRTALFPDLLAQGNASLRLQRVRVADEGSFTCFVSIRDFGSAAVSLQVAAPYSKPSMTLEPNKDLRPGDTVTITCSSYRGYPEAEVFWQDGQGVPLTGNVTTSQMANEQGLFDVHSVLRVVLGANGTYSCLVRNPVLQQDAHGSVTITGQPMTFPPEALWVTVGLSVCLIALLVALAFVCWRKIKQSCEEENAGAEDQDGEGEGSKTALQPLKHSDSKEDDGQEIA
Assay: co-IP; lysates of MGC-803 and MKN-45 cells (IP lysis buffer), IgG and Protein A+G agarose; Western blot with anti-B7-H3 and anti-FN antibodies

binding: binds
Substance: Fibronectin (from UniProt P02751 32-2477)
